The target in the experiment is ecotropic viral integration site-1 (EVI1/MECOM) (human (endogenous in HNT34, UCSD/AML1 and PDLX_PR#003 cells)) (UniProt Q03112). The experiment can be described thus: affinity purification with mass spectrometry; RIME: chromatin of HNT34, UCSD/AML1 and PDLX_PR#003 cells fixed with 1% formaldehyde for 8 min, sonicated; 150 ug chromatin immunoprecipitated with 15 ug anti-EVI1 (Cell Signaling #2593) on protein G magnetic beads; on-bead trypsin, LC-MS/MS; hits against IgG control, spectral count of five and above.

Sequences of proteins named here, by UniProt entry; tags and fusion partners are left off. A change or cut given only in a name is not applied to a line headed by its entry.
UniProt Q03112: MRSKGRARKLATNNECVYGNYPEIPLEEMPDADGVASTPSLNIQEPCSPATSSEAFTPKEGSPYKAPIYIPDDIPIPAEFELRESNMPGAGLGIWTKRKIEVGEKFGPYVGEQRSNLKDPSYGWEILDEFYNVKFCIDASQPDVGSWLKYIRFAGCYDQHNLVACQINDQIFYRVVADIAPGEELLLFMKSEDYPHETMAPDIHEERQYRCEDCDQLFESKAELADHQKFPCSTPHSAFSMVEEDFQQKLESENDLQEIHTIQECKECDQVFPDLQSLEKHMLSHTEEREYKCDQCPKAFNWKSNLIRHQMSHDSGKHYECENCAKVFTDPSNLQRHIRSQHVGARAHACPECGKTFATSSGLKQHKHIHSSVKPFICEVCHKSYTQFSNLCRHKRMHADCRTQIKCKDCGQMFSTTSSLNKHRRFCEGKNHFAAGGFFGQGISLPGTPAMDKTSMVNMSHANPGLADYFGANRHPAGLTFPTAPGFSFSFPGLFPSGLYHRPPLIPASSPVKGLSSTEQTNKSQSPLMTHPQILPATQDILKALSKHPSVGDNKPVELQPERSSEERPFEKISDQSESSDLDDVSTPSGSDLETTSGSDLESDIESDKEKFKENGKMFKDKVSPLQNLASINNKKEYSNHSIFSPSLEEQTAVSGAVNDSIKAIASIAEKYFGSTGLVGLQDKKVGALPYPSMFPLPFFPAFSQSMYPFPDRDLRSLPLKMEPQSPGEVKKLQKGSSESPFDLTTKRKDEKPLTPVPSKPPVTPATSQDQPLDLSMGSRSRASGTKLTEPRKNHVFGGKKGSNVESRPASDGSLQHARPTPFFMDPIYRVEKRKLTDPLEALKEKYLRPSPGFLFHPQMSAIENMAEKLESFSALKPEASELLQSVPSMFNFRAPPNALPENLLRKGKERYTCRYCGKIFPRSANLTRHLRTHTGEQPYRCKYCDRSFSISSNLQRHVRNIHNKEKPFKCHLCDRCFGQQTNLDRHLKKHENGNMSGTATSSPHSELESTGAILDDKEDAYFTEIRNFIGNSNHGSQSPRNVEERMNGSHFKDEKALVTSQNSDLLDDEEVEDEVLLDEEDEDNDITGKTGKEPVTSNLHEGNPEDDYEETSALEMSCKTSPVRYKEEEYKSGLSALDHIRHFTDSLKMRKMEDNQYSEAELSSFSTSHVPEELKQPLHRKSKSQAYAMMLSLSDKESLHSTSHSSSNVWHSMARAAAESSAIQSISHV
UniProt Q7Z7K6: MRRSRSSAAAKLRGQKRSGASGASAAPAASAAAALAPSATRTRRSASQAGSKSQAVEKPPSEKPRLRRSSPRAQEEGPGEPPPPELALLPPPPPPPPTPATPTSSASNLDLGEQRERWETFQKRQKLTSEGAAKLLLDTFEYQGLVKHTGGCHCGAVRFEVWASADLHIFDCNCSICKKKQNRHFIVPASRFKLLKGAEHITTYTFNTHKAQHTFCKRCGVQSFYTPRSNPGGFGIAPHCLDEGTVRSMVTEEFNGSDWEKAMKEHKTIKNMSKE
UniProt P01106: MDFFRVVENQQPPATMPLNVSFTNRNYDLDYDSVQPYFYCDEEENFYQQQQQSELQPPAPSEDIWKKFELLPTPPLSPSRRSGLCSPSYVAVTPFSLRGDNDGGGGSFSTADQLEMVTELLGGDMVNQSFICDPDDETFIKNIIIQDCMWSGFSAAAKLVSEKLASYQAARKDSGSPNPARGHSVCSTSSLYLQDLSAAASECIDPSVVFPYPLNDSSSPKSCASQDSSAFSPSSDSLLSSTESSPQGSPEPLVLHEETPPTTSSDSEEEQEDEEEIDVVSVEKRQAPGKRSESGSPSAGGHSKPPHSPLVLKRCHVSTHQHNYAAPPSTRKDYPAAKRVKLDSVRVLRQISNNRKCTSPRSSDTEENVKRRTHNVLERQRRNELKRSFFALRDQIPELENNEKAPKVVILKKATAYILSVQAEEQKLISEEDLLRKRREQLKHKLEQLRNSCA
UniProt P11940: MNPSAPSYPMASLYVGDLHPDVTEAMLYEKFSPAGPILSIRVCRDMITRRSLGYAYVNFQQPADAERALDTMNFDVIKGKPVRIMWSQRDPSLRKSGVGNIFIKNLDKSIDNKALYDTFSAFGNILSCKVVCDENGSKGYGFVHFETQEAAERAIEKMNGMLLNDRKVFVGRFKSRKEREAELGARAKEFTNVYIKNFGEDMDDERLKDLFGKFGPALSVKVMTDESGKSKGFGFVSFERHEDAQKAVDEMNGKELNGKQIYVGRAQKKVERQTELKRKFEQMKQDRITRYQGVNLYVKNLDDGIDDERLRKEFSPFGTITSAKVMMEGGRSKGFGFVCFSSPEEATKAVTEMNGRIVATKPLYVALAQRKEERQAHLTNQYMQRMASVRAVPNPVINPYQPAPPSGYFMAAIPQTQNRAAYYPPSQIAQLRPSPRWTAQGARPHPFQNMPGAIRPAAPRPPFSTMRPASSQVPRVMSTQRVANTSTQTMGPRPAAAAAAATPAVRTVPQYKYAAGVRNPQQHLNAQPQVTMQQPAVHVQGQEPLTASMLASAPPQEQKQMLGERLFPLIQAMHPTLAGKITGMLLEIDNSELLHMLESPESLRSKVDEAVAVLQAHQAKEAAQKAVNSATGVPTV
UniProt P09874: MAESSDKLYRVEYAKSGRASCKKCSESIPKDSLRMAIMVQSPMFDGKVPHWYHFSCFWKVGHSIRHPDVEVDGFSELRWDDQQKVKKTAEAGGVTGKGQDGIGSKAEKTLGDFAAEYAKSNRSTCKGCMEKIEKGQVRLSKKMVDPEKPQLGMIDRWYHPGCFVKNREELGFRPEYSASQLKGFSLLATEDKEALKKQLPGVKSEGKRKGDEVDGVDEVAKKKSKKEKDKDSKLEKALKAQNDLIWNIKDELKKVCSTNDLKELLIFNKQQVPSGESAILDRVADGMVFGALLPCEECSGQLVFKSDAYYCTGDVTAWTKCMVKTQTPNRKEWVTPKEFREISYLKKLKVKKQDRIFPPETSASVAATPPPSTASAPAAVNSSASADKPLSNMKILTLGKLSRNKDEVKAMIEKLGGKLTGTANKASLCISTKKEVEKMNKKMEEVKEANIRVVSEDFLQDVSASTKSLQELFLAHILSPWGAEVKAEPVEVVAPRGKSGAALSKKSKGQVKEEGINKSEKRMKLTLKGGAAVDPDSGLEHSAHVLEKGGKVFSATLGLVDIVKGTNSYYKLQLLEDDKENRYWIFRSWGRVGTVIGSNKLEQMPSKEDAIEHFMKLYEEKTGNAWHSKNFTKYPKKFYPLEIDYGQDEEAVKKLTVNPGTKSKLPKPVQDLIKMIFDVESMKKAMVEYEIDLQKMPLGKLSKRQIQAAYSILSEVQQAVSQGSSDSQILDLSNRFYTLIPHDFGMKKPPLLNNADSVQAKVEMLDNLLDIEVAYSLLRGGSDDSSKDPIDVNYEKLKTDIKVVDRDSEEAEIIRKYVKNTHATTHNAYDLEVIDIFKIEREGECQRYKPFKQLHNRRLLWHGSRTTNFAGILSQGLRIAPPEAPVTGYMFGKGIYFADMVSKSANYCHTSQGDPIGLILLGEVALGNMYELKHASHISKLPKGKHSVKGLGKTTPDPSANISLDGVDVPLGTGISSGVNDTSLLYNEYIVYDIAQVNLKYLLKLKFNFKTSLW
UniProt Q7KZF4: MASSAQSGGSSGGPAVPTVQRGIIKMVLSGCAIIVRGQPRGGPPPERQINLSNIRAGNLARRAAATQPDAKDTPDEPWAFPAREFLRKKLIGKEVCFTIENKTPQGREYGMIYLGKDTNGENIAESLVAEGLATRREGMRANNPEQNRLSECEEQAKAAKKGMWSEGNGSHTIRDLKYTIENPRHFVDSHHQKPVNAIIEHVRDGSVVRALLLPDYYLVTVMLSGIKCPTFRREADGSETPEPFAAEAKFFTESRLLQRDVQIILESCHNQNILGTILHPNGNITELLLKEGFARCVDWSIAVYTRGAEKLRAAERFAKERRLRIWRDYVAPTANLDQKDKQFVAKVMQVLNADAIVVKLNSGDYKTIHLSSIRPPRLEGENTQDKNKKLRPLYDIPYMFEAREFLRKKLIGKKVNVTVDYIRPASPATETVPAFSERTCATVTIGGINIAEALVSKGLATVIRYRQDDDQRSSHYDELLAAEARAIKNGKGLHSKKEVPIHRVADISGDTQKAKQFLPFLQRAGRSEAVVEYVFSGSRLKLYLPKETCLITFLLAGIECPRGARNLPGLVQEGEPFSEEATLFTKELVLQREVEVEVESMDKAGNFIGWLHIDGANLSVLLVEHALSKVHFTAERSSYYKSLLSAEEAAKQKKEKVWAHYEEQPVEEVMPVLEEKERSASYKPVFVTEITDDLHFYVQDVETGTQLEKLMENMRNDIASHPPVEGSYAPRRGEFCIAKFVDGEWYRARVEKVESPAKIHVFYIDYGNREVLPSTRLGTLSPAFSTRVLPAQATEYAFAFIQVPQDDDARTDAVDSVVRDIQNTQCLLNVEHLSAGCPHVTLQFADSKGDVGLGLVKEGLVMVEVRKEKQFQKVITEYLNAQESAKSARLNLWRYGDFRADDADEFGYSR
UniProt P13010: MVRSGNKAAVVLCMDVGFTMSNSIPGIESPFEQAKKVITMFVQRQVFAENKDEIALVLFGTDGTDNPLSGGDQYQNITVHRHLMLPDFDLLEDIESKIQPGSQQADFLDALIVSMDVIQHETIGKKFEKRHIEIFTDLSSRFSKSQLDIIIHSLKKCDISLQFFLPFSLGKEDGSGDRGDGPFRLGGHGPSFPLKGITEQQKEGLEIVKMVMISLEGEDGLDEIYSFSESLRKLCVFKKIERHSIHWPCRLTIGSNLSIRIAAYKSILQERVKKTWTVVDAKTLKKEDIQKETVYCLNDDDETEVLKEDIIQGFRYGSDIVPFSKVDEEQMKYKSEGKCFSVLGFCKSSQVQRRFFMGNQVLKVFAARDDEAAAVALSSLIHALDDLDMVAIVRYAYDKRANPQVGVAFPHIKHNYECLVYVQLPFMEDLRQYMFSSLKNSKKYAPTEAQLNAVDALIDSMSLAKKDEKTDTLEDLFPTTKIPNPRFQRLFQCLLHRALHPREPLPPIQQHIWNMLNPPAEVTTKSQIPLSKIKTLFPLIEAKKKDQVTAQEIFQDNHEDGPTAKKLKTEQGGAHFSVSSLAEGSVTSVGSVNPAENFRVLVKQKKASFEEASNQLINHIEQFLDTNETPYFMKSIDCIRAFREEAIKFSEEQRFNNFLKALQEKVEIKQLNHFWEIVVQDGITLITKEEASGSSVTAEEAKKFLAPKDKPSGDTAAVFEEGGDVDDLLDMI
UniProt Q9NR30: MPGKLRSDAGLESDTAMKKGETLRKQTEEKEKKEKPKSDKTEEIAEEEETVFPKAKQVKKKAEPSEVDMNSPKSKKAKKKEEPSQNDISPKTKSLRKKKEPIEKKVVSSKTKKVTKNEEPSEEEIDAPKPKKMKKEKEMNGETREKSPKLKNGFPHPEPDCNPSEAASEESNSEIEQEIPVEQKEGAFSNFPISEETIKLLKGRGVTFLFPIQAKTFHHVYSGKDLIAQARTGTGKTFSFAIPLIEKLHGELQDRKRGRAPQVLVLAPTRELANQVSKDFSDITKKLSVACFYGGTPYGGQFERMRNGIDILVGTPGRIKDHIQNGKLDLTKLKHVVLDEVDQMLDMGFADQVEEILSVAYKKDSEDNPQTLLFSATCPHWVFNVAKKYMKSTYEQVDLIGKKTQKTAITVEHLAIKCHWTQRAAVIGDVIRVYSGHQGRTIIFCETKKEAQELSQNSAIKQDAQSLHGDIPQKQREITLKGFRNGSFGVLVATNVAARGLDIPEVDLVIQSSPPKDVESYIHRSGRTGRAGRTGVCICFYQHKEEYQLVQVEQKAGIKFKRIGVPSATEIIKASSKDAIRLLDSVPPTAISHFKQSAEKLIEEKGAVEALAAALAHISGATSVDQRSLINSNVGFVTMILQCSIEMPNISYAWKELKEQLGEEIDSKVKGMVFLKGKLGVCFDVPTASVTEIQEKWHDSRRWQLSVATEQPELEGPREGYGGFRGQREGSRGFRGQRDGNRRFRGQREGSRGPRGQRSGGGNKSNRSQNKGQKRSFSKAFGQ

These are yes or no findings as the source states them, for the method shown. Binding seen in cells or lysates may run through a third protein. Here binding means that the protein was enriched with, or labelled near, the bait; the list need not be complete. No binding means not detected with the bait.

Consider CENPV (from UniProt Q7Z7K6 1-275), for which the binding entry is reported as “binds”.

With MYC (from UniProt P01106 1-454), the binding result is listed as “no binding”.

As to PABPC1 (from UniProt P11940 1-636), the binding result is recorded as “binds”. The result for PARP1 (from UniProt P09874 1-1014) reads “binds”. SND1 (from UniProt Q7KZF4 1-910): the binding entry is listed as “binds”. Consider XRCC5 (from UniProt P13010 1-732), for which the binding result is on record as “binds”.

Consider “nucleolar RNA helicase 2 (from UniProt Q9NR30 1-783)”, for which the binding entry was “binds”.

B1: MTDH (protein, UniProt Q86UE4 1-582)
chain: MAARSWQDELAQQAEEGSARLREMLSVGLGFLRTELGLDLGLEPKRYPGWVILVGTGALGLLLLFLLGYGWAAACAGARKKRRSPPRKREEAAAVPAAAPDDLALLKNLRSEEQKKKNRKKLSEKPKPNGRTVEVAEGEAVRTPQSVTAKQPPEIDKKNEKSKKNKKKSKSDAKAVQNSSRHDGKEVDEGAWETKISHREKRQQRKRDKVLTDSGSLDSTIPGIENTITVTTEQLTTASFPVGSKKNKGDSHLNVQVSNFKSGKGDSTLQVSSGLNENLTVNGGGWNEKSVKLSSQISAGEEKWNSVSPASAGKRKTEPSAWSQDTGDANTNGKDWGRSWSDRSIFSGIGSTAEPVSQSTTSDYQWDVSRNQPYIDDEWSGLNGLSSADPNSDWNAPAEEWGNWVDEERASLLKSQEPIPDDQKVSDDDKEKGEGALPTGKSKKKKKKKKKQGEDNSTAQDTEELEKEIREDLPVNTSKTRPKQEKAFSLKTISTSDPAEVLVKNSQPIKTLPPATSTEPSVILSKSDSDKSSSQVPPILQETDKSKSNTKQNSVPPSQTKSETSWESPKQIKKKKKARRET
Turning to B1, the binding result is listed as “binds”.

B2: RPN1 (protein, UniProt P04843 24-607)
chain: ASSEAPPLINEDVKRTVDLSSHLAKVTAEVVLAHLGGGSTSRATSFLLALEPELEARLAHLGVQVKGEDEEENNLEVRETKIKGKSGRFFTVKLPVALDPGAKISVIVETVYTHVLHPYPTQITQSEKQFVVFEGNHYFYSPYPTKTQTMRVKLASRNVESYTKLGNPTRSEDLLDYGPFRDVPAYSQDTFKVHYENNSPFLTITSMTRVIEVSHWGNIAVEENVDLKHTGAVLKGPFSRYDYQRQPDSGISSIRSFKTILPAAAQDVYYRDEIGNVSTSHLLILDDSVEMEIRPRFPLFGGWKTHYIVGYNLPSYEYLYNLGDQYALKMRFVDHVFDEQVIDSLTVKIILPEGAKNIEIDSPYEISRAPDELHYTYLDTFGRPVIVAYKKNLVEQHIQDIVVHYTFNKVLMLQEPLLVVAAFYILFFTVIIYVRLDFSITKDPAAEARMKVACITEQVLTLVNKRIGLYRHFDETVNRYKQSRDISTLNSGKKSLETEHKALTSEIALLQSRLKTEGSDLCDRVSEMQKLDAQVKELVLKSAVEAERLVAGKLKKDTYIENEKLISGKRQELVTKIDHILDAL
On to B2, for which the binding result is recorded as “binds”.

B3: proliferation-associated 2G4 (PA2G4) protein (protein, UniProt Q9UQ80 1-394)
chain: MSGEDEQQEQTIAEDLVVTKYKMGGDIANRVLRSLVEASSSGVSVLSLCEKGDAMIMEETGKIFKKEKEMKKGIAFPTSISVNNCVCHFSPLKSDQDYILKEGDLVKIDLGVHVDGFIANVAHTFVVDVAQGTQVTGRKADVIKAAHLCAEAALRLVKPGNQNTQVTEAWNKVAHSFNCTPIEGMLSHQLKQHVIDGEKTIIQNPTDQQKKDHEKAEFEVHEVYAVDVLVSSGEGKAKDAGQRTTIYKRDPSKQYGLKMKTSRAFFSEVERRFDAMPFTLRAFEDEKKARMGVVECAKHELLQPFNVLYEKEGEFVAQFKFTVLLMPNGPMRITSGPFEPDLYKSEMEVQDAELKALLQSSASRKTQKKKKKKASKTAENATSGETLEENEAGD
Turning to B3, the binding result was “binds”.

B4: ESYT1 (protein, UniProt Q9BSJ8 1-1104)
chain: MERSPGEGPSPSPMDQPSAPSDPTDQPPAAHAKPDPGSGGQPAGPGAAGEALAVLTSFGRRLLVLIPVYLAGAVGLSVGFVLFGLALYLGWRRVRDEKERSLRAARQLLDDEEQLTAKTLYMSHRELPAWVSFPDVEKAEWLNKIVAQVWPFLGQYMEKLLAETVAPAVRGSNPHLQTFTFTRVELGEKPLRIIGVKVHPGQRKEQILLDLNISYVGDVQIDVEVKKYFCKAGVKGMQLHGVLRVILEPLIGDLPFVGAVSMFFIRRPTLDINWTGMTNLLDIPGLSSLSDTMIMDSIAAFLVLPNRLLVPLVPDLQDVAQLRSPLPRGIIRIHLLAARGLSSKDKYVKGLIEGKSDPYALVRLGTQTFCSRVIDEELNPQWGETYEVMVHEVPGQEIEVEVFDKDPDKDDFLGRMKLDVGKVLQASVLDDWFPLQGGQGQVHLRLEWLSLLSDAEKLEQVLQWNWGVSSRPDPPSAAILVVYLDRAQDLPLKKGNKEPNPMVQLSIQDVTQESKAVYSTNCPVWEEAFRFFLQDPQSQELDVQVKDDSRALTLGALTLPLARLLTAPELILDQWFQLSSSGPNSRLYMKLVMRILYLDSSEICFPTVPGCPGAWDVDSENPQRGSSVDAPPRPCHTTPDSQFGTEHVLRIHVLEAQDLIAKDRFLGGLVKGKSDPYVKLKLAGRSFRSHVVREDLNPRWNEVFEVIVTSVPGQELEVEVFDKDLDKDDFLGRCKVRLTTVLNSGFLDEWLTLEDVPSGRLHLRLERLTPRPTAAELEEVLQVNSLIQTQKSAELAAALLSIYMERAEDLPLRKGTKHLSPYATLTVGDSSHKTKTISQTSAPVWDESASFLIRKPHTESLELQVRGEGTGVLGSLSLPLSELLVADQLCLDRWFTLSSGQGQVLLRAQLGILVSQHSGVEAHSHSYSHSSSSLSEEPELSGGPPHITSSAPELRQRLTHVDSPLEAPAGPLGQVKLTLWYYSEERKLVSIVHGCRSLRQNGRDPPDPYVSLLLLPDKNRGTKRRTSQKKRTLSPEFNERFEWELPLDEAQRRKLDVSVKSNSSFMSRERELLGKVQLDLAETDLSQGVARWYDLMDNKDKGSS
B4: the binding entry is given as “binds”.

B5: Fibrillarin (protein, UniProt P22087 1-321)
chain: MKPGFSPRGGGFGGRGGFGDRGGRGGRGGFGGGRGRGGGFRGRGRGGGGGGGGGGGGGRGGGGFHSGGNRGRGRGGKRGNQSGKNVMVEPHRHEGVFICRGKEDALVTKNLVPGESVYGEKRVSISEGDDKIEYRAWNPFRSKLAAAILGGVDQIHIKPGAKVLYLGAASGTTVSHVSDIVGPDGLVYAVEFSHRSGRDLINLAKKRTNIIPVIEDARHPHKYRMLIAMVDVIFADVAQPDQTRIVALNAHTFLRNGGHFVISIKANCIDSTASAEAVFASEVKKMQQENMKPQEQLTLEPYERDHAVVVGVYRPPPKVKN
Turning to B5, the binding entry is listed as “binds”.

Values taken from paper PMC11150407.
